Data reported in the supplement of paper PMC3334620.
Whole data set: some 33,000 sequences, median “E-score (-0.5 to 0.5)” near -0.016, cut for the highest 2% near 0.3. This is one part of the list.

Target: T1, Yer184c (UniProt P39961)
T1 sequence: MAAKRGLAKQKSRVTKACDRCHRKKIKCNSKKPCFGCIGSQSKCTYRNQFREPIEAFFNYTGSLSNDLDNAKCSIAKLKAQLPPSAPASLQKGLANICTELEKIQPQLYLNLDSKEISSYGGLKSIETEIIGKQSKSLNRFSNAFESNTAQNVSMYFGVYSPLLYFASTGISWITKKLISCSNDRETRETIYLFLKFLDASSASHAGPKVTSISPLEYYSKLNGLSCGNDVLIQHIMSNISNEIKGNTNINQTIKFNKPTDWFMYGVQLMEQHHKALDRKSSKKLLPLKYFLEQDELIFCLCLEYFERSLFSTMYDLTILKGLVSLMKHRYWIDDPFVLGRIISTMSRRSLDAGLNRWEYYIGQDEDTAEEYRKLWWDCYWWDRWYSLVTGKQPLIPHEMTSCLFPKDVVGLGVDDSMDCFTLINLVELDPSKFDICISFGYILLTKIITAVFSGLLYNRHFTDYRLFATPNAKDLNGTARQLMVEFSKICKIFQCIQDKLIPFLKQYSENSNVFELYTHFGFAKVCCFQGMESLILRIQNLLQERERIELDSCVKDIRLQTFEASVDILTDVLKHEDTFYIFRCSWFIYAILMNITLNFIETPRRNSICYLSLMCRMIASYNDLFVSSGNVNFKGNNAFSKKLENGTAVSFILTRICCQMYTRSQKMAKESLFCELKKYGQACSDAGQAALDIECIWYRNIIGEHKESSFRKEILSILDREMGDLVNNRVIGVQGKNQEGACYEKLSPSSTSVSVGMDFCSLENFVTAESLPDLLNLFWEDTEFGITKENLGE
Experiment: PBM E-score (8-mer binding enrichment) (E-score (-0.5 to 0.5)); higher = stronger / more preferred TF binding
Settings: protein concentration: 100 nM; construct: GST-full length
How it was run: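 Bound GST-tagged yeast transcription factors, applied at about 100-200 nM to double-stranded universal all-10-mer Agilent arrays, were detected with fluorescent anti-GST. Scans were normalised with masliner. A modified Wilcoxon-Mann-Whitney statistic, the E-score, was assigned to each ungapped eight-base word pooled with its reverse complement by the Universal PBM Analysis Suite.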

Sequence | PBM E-score
ACCAGGGT | -0.265
CAGAATGG | 0.0505
GTTATACA | 0.129
CCGGCCCC | -0.00948
CGCAAGGC | 0.0502
ATCCTACA | -0.089
CGGAGCAC | 0.102
ATCATGCG | 0.0102
ATTCAAAG | 0.0128
ACGGGGAG | -0.108
CGTAACAG | -0.105
CGCGGGTC | 0.232
CAACGACA | 0.00773
CCTTAGTA | -0.0225
AACTCCGC | -0.0142
CAGACCTA | -0.149
AGTTCGAG | -0.00888
AAATTCAC | 0.175
GATAAATA | 0.186
TGGTTGAA | -0.0916
GGCTAAAC | -0.0419
CACCGAAG | 0.192
ATGATCCC | -0.00892
AACGTCAC | -0.0992
GGGCGCAA | -0.076

Sequence | PBM E-score
GGATTATA | 0.159
TAGAGAGA | -0.0595
CCCCAGGG | -0.297
ACAAATCA | -0.0458
AGAGATGG | 0.0255
GTGATAAC | -0.0196
GGATCACA | 0.0283
CACCGCCA | -0.223
GCGTCGCC | -0.114
CAATTGCC | 0.025
ATGCCCAC | -0.0514
CGGTTCTA | 0.125
CTCCAACC | 0.0803
CTCGAAAA | -0.0323
CAAAAACG | 0.128
CGGGGGCA | -0.344
CAACCAAG | -0.0924
GACGAATC | 0.0978
AGTAACAG | 0.117
AAGCCCGG | 0.294
CGCTCATA | -0.11
AGATACCC | 0.108
ACATGAGC | -0.0914
GAACGATA | -0.00864
CAGACCCC | -0.313

Rewritten field by field: entries from further up.
GGATCACA
  PBM E-score: 0.0283
GCGTCGCC
  PBM E-score: -0.114
ATGCCCAC
  PBM E-score: -0.0514
CTCCAACC
  PBM E-score: 0.0803

(listing goes on)

Sequence | PBM E-score
ACCTCTGG | -0.287
AAACCCTA | -0.0932
CACTAATG | -0.00249
ACCAGTCT | -0.149
AAGTATAC | 0.0725
GTGACGCA | -0.0588
ACGTCTGG | -0.0611
ACTCCCCC | -0.285
ACTTGAAC | 0.0776
ACCGGTTG | 0.285
CGTCTCTC | 0.108
ACTCTTCA | 0.0248
GTCGAATA | -0.0617
CATAATGG | -0.301
ATACGCTA | 0.0126
AGACGGAG | 0.0315
GATATGAA | 0.156
CACAGCGA | 0.0717
CCGTTACC | 0.0881
ATTATGTA | 0.183
ATCTTAGA | 0.15
CTCTGCAA | 0.0889
ATTCCTAA | 0.134
TGTCATAA | 0.0101
GCGACTCC | -0.276

Sequence | PBM E-score
GATCAAAA | 0.157
AAACGAAG | -0.0517
CGACGTTC | -0.244
GTGCGCCA | -0.118
GTAAAAAA | 0.17
TGGCTAAA | 0.0133
AACTCTTG | -0.125
AGTCTGGG | -0.227
AACACGGC | 0.132
AGTCGATA | -0.133
AGATGGGA | -0.194
AGCAATGC | 0.0377
AGACAGAT | 0.0536
ATAAGGCC | -0.0371
AGTCGTTA | -0.148
ACGGTGTA | -0.0851
CGTCCCCC | -0.275
ATAATCGG | 0.299
ATACCATC | -0.0833
CCTTGTTA | 0.00089
ATCTGATG | -0.168
GCGGAAAC | 0.0908
ACAGTGCG | -0.236
GAGCGATA | -0.084
ACTCCTCG | 0.0636

Sequence | PBM E-score
GCGCACAA | 0.17
AAGAATAT | -0.00876
CTAGTTGC | -0.00127
ACGAGCGA | -0.107
GACTACAA | -0.114
CGCAGATA | 0.0637
ATCTCGAC | -0.0837
GAATGGCA | 0.135
CAGGAGGA | -0.251
GTATCTAA | 0.171
AGGCAGTA | -0.153
TAACGAAA | 0.239
ACAAAAAC | 0.238
GAACATAC | 0.191
GGCAACAC | 0.0425
TCCGTACA | 0.219
CACAAGCA | -0.0822
GGGCAACA | -0.0183
GATGATAA | 0.152
ATTCAAGG | -0.194
AACTGAGA | 0.0276
CCCAATCG | -0.0948
ACCAGCGT | -0.175
AGCGTACA | -0.142
ATCATGGG | -0.124

Sequence | PBM E-score
CCCCCGAG | -0.316
AGGCCCGG | 0.0336
AGAAGTTA | 0.00342
AAGGGCCC | -0.28
ATCACGCG | 0.136
AAAAGGTG | -0.0762
ATACTAGG | 0.00209
AGAGACAT | -0.0279
AGTGACGA | 0.0473
CACGTCCG | -0.0881
AGAGTTTA | 0.175
GGGGTTAA | -0.125
CGGACGGA | 0.189
AACCGGAT | 0.366
ATGTTCCG | 0.347
GATCATCC | 0.117
ACAATTAG | -0.0226
CCCGCACC | -0.276
CTCAAATA | 0.0767
GGTAAGAC | 0.0174
ACAAGGCC | -0.189
CTGATTTA | 0.139
AGCTGGAT | -0.0937
CTTATACA | 0.0241
ACCAATCC | 0.0831

No new results follow: an excerpt of the list.
Sequence | PBM E-score
CTGATTTA | 0.139
AGCTGGAT | -0.0937

Next part

Sequence | PBM E-score
AAACTGGT | -0.00684
GACACTGA | 0.107
CCTTGAAC | -0.0919
GAGTGTAC | -0.121
GTAGCACA | -0.144
AAAAGACC | -0.107
CATGCAAC | -0.00764
CCAGCGAC | -0.258
CTAATAAC | 0.0535
AGTATAGG | -0.0669
CTTGCATC | -0.191
ATGCCGCC | 0.0156
CTCGCGCC | -0.0106
AGCGACTA | -0.0667
CAAGGCTA | 0.0654
ACATCCTA | -0.194
ACTCTTTA | -0.0985
AATGCGTA | -0.0408
GTGCGTGA | 0.0804
AGGTTAGG | -0.131
AACAAAAA | 0.228
ACCCAGGT | -0.32
TAGCACCA | -0.0818
CGCAACTC | 0.185
GCGAGTCA | -0.143

Taken from above:
Value for AGTCGTTA under PBM E-score: -0.148
Value for CAACCAAG under PBM E-score: -0.0924

Next part

Sequence | PBM E-score
CTTGCGAA | 0.174
ACTGCGTC | -0.0743
ATCGTCGG | 0.0834
ACTCGTTC | 0.0874
ACGGAAAT | 0.39
GAACGCAA | 0.11
GCAGCAGC | -0.0995
ACGTACAG | -0.293
ACGACGCG | 0.0857
CACTGTGG | -0.283
GCACATCA | 0.0464
AGGAGATG | -0.0402
TAGACTAA | -0.0929
CGTTGATA | 0.155
GGGCCAAA | -0.0751
GTTCCAGA | 0.12
ATTCAATC | 0.195
CGATGGGA | -0.0793
TGGGTTAA | -0.11
ACGTTACC | 0.0109
CCAGGGAA | -0.288
GTGTCACA | 0.12
ACACCTGG | -0.202
GAAGGTCC | -0.109
GGTCAATA | -0.0777

Sequence | PBM E-score
ATGGTTCG | 0.014
CTAGTGTC | 0.0485
AGGACGTG | -0.216
GTTCTCGA | -0.0339
AATTAATT | 0.0189
TAAGTCGA | -0.0984
GTTCGATA | 0.0722
AATCCCCG | 0.0812
ATCCGGGC | 0.363
AGGCCCCC | -0.269
ACTTATGA | 0.101
GCTTTTTA | 0.166
CTGGATAA | 0.0598
ACGTGAGA | -0.12
AAAGGTCC | -0.0647
ACCTTGGA | -0.233
AGAGAGTG | -0.158
GAGTTGGC | -0.17
CCGGAAGA | 0.344
